# Reference: PubChem BioAssay AID328 (DTP/NCI, 2004)
# The list shows only some results of the screen, not a fair sample: it gathers tests that were run many times, whatever their T/C, doses with no T/C, and many T/C values between a quarter and a half above the control. Other doses and runs of a compound stand elsewhere. T/C: endpoint of the treated group in % of that of the vehicle group. Some entries give survivors of the animals treated and no T/C: the source holds a T/C of zero for them, seemingly a mark for toxic or unscored doses. Some survivor counts are full or nearly so, which does not show that the dose was tolerated: survival well below the control is almost never listed, so the zero probably covers shortened survival too. Counts of survivors are from the toxicity check (mostly the fifth day) where no day follows; animals may have died later. Schedules are NCI's codes, taken here to give the interval after Q, in days (D) or hours (H), and the number of doses after X. Some entries hold several experiments; the values are given in rising order. Where survival is the endpoint, this PubChem deposit counts one and a half times the control or more as active, and values a quarter to a half above the control carry no call in these data; other NCI protocols may use other cut-offs. Some T/C values are followed by the survivors on the day toxicity was checked, most often the fifth; where none is given, no animal had died by that day.
# Test system: BDF1 mice, P388 leukemia ip, median survival T/C
# Test: NCI In Vivo Anticancer Drug Screen. Data for tumor model P388 Leukemia (intraperitoneal) in B6D2F1 (BDF1) mice
# Details: T/C endpoint: median survival time, higher T/C = longer survival
# In short: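 Reported as T/C, where T is the survival measurement in dosed animals and C the same measurement in vehicle controls.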
# [1] = dose: 100.0 mg/kg/injection, schedule: Q01DX009 (ip), vehicle: saline with Tween-80
# [2] = dose: 400.0 mg/kg/injection, schedule: Q01DX009 (ip), vehicle: saline with Tween-80
# [3] = dose: 200.0 mg/kg/injection, schedule: Q01DX009 (ip), vehicle: saline with Tween-80
structure (smiles),measurement,setting,value
O=C(CC(=O)C(F)(F)F)c1csc2ccccc12,T/C,"dose: 100.0 mg/kg/injection, schedule: Q01DX009 (ip), vehicle: gum acacia",125 and 126 % of control
same,T/C,[1],125 % of control
same,survivor count,"dose: 150.0 mg/kg/injection, schedule: Q01DX009 (ip), vehicle: saline with Tween-80",2 of 6
same,survivor count,"dose: 170.0 mg/kg/injection, schedule: Q01DX009 (ip), vehicle: Klucel (hydroxypropylcellulose) (HPC)",0 of 6
same,survivor count,"dose: 200.0 mg/kg/injection, schedule: Q04DX003 (ip), vehicle: gum acacia",0 of 6
same,survivor count,"dose: 400.0 mg/kg/injection, schedule: Q04DX003 (ip), vehicle: gum acacia",1 of 6
CCn1nnc2c(N(C)C)nc(N)nc21,survivor count,"dose: 200.0 mg/kg/injection, schedule: Q04DX003 (ip), vehicle: Klucel (hydroxypropylcellulose) (HPC)",0 of 6
COc1ccc(C(=O)C(C)C=O)c(OCc2ccccc2)c1OC (stereo unspecified),survivor count,[2],6 of 6
CCC(C)C1NC(=O)C(NC(=O)c2c3nc4c(C(=O)NC5C(=O)NC(C(C)CC)C(=O)N6CCCC6C(=O)N(C)CC(=O)N(C)C(C(C)C)C(=O)OC5C)cc(N)c(C)c4oc-3c(C)c(=O)c2N)C(C)OC(=O)C(C(C)C)N(C)C(=O)CN(C)C(=O)C2CCCN2C1=O (stereo unspecified),T/C,"dose: 0.15 mg/kg/injection, schedule: Q04DX003 (ip), vehicle: saline + alcohol",131 % of control
same,T/C,"dose: 0.3 mg/kg/injection, schedule: Q04DX003 (ip), vehicle: saline + alcohol",138 % of control [6 of 8 alive]
same,T/C,"dose: 1.2 mg/kg/injection, schedule: Q04DX003 (ip), vehicle: saline + alcohol",142 % of control
same,survivor count,"dose: 2.4 mg/kg/injection, schedule: Q04DX003 (ip), vehicle: saline + alcohol",2 of 8 and 5 of 8
CCNc1ccc(/C=C2\C=Cc3ccccc32)cc1,survivor count,"dose: 6.25 mg/kg/injection, schedule: Q01DX009 (ip), vehicle: Klucel (hydroxypropylcellulose) (HPC)",6 of 6
CCCCC[C@@H](CN(C)C)[C@H](O)/C=C/c1ccc(Cl)cc1,T/C,"dose: 12.5 mg/kg/injection, schedule: Q01DX009 (ip), vehicle: Klucel (hydroxypropylcellulose) (HPC)",127 % of control
same,T/C,"dose: 25.0 mg/kg/injection, schedule: Q01DX009 (ip), vehicle: Klucel (hydroxypropylcellulose) (HPC)",127 % of control
CC(C)(C)NCc1cc(C(C)(C)C)cc(-c2ccc(Cl)cc2)c1O,survivor count,[3],2 of 6
NC(=O)c1ccc[n+](Cc2c(Cl)cccc2Cl)c1,T/C,"dose: 1.9 mg/kg/injection, schedule: Q04DX003 (ip), vehicle: saline",140 % of control
same,T/C,"dose: 2.9 mg/kg/injection, schedule: Q04DX003 (ip), vehicle: saline",127 % of control
same,survivor count,"dose: 4.12 mg/kg/injection, schedule: Q01DX009 (ip), vehicle: saline",6 of 6
same,T/C,"dose: 4.4 mg/kg/injection, schedule: Q04DX003 (ip), vehicle: saline",145 % of control
same,T/C,"dose: 6.75 mg/kg/injection, schedule: Q04DX003 (ip), vehicle: saline",145 % of control
same,T/C,"dose: 8.9 mg/kg/injection, schedule: Q04DX003 (ip), vehicle: saline",129 % of control
same,T/C,"dose: 13.5 mg/kg/injection, schedule: Q04DX003 (ip), vehicle: saline",133 % of control
same,survivor count,"dose: 27.0 mg/kg/injection, schedule: Q04DX003 (ip), vehicle: saline",6 of 6
CN(C)c1ccc(C2NC(=S)NC3=C2CCCC3)cc1 (stereo unspecified),survivor count,[1],6 of 6
same,survivor count,[3],6 of 6
CC(C)CSc1ncnc2nc[nH]c12,survivor count,[3],4 of 6
same,survivor count,[2],3 of 6
COC(=O)c1cc(C)c(Br)c(OC)c1,survivor count,"dose: 100.0 mg/kg/injection, schedule: Q01DX009 (ip), vehicle: Klucel (hydroxypropylcellulose) (HPC)",6 of 6
same,survivor count,"dose: 200.0 mg/kg/injection, schedule: Q01DX009 (ip), vehicle: Klucel (hydroxypropylcellulose) (HPC)",6 of 6
same,survivor count,"dose: 400.0 mg/kg/injection, schedule: Q01DX009 (ip), vehicle: Klucel (hydroxypropylcellulose) (HPC)",3 of 6
COc1cccc(/C=C2\SC(=S)N(CCCN3CCOCC3)C2=O)c1OC,survivor count,[3],6 of 6
CC[N+](CC)(CC)CCCC[N+](CC)(CC)CC,survivor count,"dose: 75.0 mg/kg/injection, schedule: Q01DX009 (ip), vehicle: water",2 of 6
same,survivor count,"dose: 100.0 mg/kg/injection, schedule: Q04DX003 (ip), vehicle: water",3 of 6
COC(=O)c1c(C)ccc2c(O)c3c(cc12)C(=O)c1c2c(cc(O)c1C3=O)C1(C)OC(C)(O2)C(O)C(N(C)C)C1O (stereo unspecified),T/C,"dose: 35.0 mg/kg/injection, schedule: Q01DX009 (ip), vehicle: Klucel (hydroxypropylcellulose) (HPC)",133 % of control
CC(C)CC(C(=O)NC1C(=O)NC(Cc2c[nH]c3ccccc23)C(=O)N/C=C\c2ccc(cc2)OC1C(C)C)N(C)C (stereo unspecified),T/C,"dose: 0.4 mg/kg/injection, schedule: Q01DX010 (ip), vehicle: alcohol",140 % of control
